In patent US20250282866A1, “TREATMENT OF DISEASES RELATED TO ATP-BINDING CASSETTE TRANSPORTER 1 DYSFUNCTION USING TREM2 AGONISTS” (VIGIL NEUROSCIENCE, INC., priority 2020, published 2025) one finds binding data, which are given here for 9 molecules.

Protein sequences, listed by entry. Tags and fused reporters are not part of them. Lines headed by an entry give the natural chain unless they say otherwise; changes in a name come on top.
UniProt Q9NZC2: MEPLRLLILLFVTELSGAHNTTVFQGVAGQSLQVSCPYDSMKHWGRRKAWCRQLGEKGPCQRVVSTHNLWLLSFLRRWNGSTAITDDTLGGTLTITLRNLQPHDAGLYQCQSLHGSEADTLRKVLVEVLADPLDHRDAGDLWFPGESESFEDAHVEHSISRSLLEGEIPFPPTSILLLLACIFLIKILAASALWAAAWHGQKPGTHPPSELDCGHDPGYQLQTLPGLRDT

Changes are numbered by the printed parent chain. No constants are given. Whether binding was seen depends on the method and setting. Some entries that bind do so weakly or less than the wild type.

Sequences and labels used below:
B1: 4G10 (antibody, V domains shown)
VH: EVQLVQSGAEVKKPGESLKISCKGSGYSFPSYWIAWVRQMPGKGLEWMGIIYPGDSDTRYSPSFQGQVTISADKSISTAFLKWSSLKASDTAMYFCARQGIEVTGTGGLDVWGQGTTVTVSS
VL: DIQMTQSPSSLSASVGDRVTITCRASQGIRNDLGWYQQKPGNAPKRLIYAASSLPSGVPSRFSGSGSGPEFTLTISSLQPEDFATYYCLQHNSYPWTFGQGTKVEIT
B2: 32E3 (antibody, V domains shown)
VH: EVQLVQSGAEVKKPGESLKISCKGSGYSFTSYWIGWVRQMPGKGLEWMGIIYPGDSDTRYSPSFQGQVTISADKSISTAYLQWSTLKASDTAIYYCARHDIIPAAPGAFDIWGQGTMVTVSS
VL: EFVLTQSPGTLSLSPGERATLSCRASQIISSNYLAWYQQKPGQAPRLLIYSASSRATGIPDRFSGSGSGTDFTLTISRLEPEDFAVYYCQQFDSSPITFGRGTRLDIK
B3: 16B8 (antibody, V domains shown)
VH: QVQLVQSGAEVKKPGASVKVSCKASGYTFTNYGISWVRQAPGQGLEWMGWISAYNGNTNYAQKLQGRVTMTTDTSTSTVYMELRSLRSDDTAVYYCARRGYSYGSFDYWGQGTLVTVSS
VL: DIQMTQSPSSVSASVGDRVTVTCRASQDINSWLAWYQQKPGKAPKLLIYAASSLQTGVPSRFSGSGSGTDFTLTISSLQPEDFATYSCQQSNSFPITFGQGTRLEIK
B4: 4C5 (antibody, V domains shown)
VH: EVQLVQSGAEVKKPGESLKISCKGSGHSFTNYWIAWVRQMPGKGLEWMGIIYPGDSDTRYSPSFQGQVTISADKSISTAYLQWSSLKASDTAVYFCARQRTFYYDSSGYFDYWGQGTLVTVSS
VL: DIQMTQSPSSVSASVGDRVTITCRASQGISNWLAWYQQKPGKAPKLLIYAASSLQVGVPLRFSGSGSGTDFTLTISSLQPEDFATYYCQQADSFPRNFGQGTKLEIK
B5: 6E7 (antibody, V domains shown)
VH: B4 VH with H27Y, N31S, V93M, G108D
VL: B4 VL with N31S, V56N, L60S, Y87F, N97T
B6: 5E3 (antibody, V domains shown)
VH: QVQLVQSGAEVKKPGASVKVSCKASGYTFTGYYIHWVRQAPGLGLEWMGWINPYSGGTTSAQKFQGRVTMTRDTSISSAYMELSRLRSDDTAVYYCARDGGYLALYGTDVWGQGTTVTVSS
VL: DIQMTQSPSSLSASVGDRVTITCRASQGISNYLAWFQQKPGKAPKSLIYAASSLQSGVPSKFSGSGSGTDFTLTISSLQPEDFATYYCQQYSTYPFTFGPGTKVDIK
B7: 10E3 (antibody, V domains shown)
VH: EVQLVQSGAEVKKPGESLMISCKGSGYSFTNYWIGWVRQMPGKGLEWMGIIYPGDSDTRYSPSFQGQVTISADKSISTAYLQWSSLKASDTAMYFCARRRQGIWGDALDIWGQGTLVTVSS
VL: EIVMTQSPATLSVSPGERATLSCRASQSVSSNLAWFQQKPGQAPRLLIYGASTRATGIPARFSVSGSGTEFTLTISSLQSEDFAFYYCLQDNNWPPTFGPGTKVDIK
B8: 13E7 (antibody, V domains shown)
VH: B7 VH with N31S, I110F
VL: B7 VL with F85V
B9: 26C10 (antibody, V domains shown)
VH: EVQLVESGGALVQPGGSLRLSCAASGFTFSSFGMSWVRQAPGKGLEWVSYISSSSFTIYYADSVKGRFTISRDNAKNSFYLQMNSLRDEDTAVYFCVREGGITMVRGVSSYGMDVWGQGTTVTVSS
VL: SFELTQPPSVSVSPGQTASITCSGDKLGDKYVCWYQQKPGQSPMLVIYQDTKRPSGIPERFSGSNSGNTATLTISGTQAMDEADYYCQAWDSSTVVFGGGTKLTVL

The target in the test is human TREM2 (human) (UniProt Q9NZC2). Nature of the test: Octet BLI competition.
For the molecule B1, the binding result is “binds”.

B2: the binding result is “binds”. Take B3: the binding entry is reported as “binds”. On to B4, for which the binding result is recorded as “binds”.

B5: the binding result is on record as “binds”.

B6: the binding entry is on record as “binds”.

Consider B7, for which the binding result is given as “binds”. In the case of B8, the binding result is given as “binds”.

In the case of B9, the binding entry is “binds”.
